Counter-ions that a name gives are not always drawn. The list shows a part of the results. Many values rest on one well or one pass, so single values are uncertain.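 The three strains are clinical Candida auris isolates from the CDC resistance isolate bank, from clades III, IV and I, grown in RPMI-1640 at 35°C. Growth is background-corrected OD600 relative to vehicle-only wells on the same plate; a hit meant over 50% inhibition in at least two strains plus a plate-corrected B-score above 0.1.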
Assays:
Test in all cases: growth relative to vehicle control (OD600 ratio) (fraction); higher = less inhibition
Conditions in all cases: 24 h
[1] = system: C. auris AR-384
[2] = system: C. auris AR-386
[3] = system: C. auris AR-387

Structure (SMILES)	growth ([1]; 1 µM)	growth ([1]; 10 µM)	growth ([2]; 1 µM)	growth ([2]; 10 µM)	growth ([3]; 1 µM)	growth ([3]; 10 µM)
Cc1nc2c([nH]1)-c1ccccc1N(C(=O)c1ccc(NC(=O)c3ccccc3-c3ccccc3)cc1)CC2 [Conivaptan HCl]	0.7	1.14	0.91	0.87	0.91	1.09
C[n+]1ccccc1/C=N/O [Pralidoxime chloride]	0.68	0.69	1.1	0.73	0.78	0.84
C#C[C@]1(O)CC[C@H]2[C@@H]3CCc4cc(OC5CCCC5)ccc4[C@H]3CC[C@@]21C [Quinestrol]	1.18	1.17	1.36	1.01	1.57	1.45
CCCC(=O)O[C@]1(C(=O)COC(C)=O)CC[C@H]2[C@@H]3C[C@H](F)C4=CC(=O)C=C[C@]4(C)[C@@]3(F)[C@@H](O)C[C@@]21C [Difluprednate]	1	0.66	0.78	0.62	0.78	0.7
CNCCC(Oc1ccc(C(F)(F)F)cc1)c1ccccc1 (stereo unspecified) [Fluoxetine HCl]	1	1.05	0.85	0.46	0.7	0.74
CCn1c(=O)c2c(nc(/C=C/c3ccc(OC)c(OC)c3)n2C)n(CC)c1=O [Istradefylline]	0.75	0.99	0.73	1.12	0.71	0.72
CN(C)CCOc1ccc(/C(=C(/CCCl)c2ccccc2)c2ccccc2)cc1 [Toremifene Citrate]	0.83	1.04	1.06	0.73	0.69	0.87
CC(=O)Oc1c(C)c(C)c2c(c1C)CCC(C)(CCC[C@H](C)CCC[C@H](C)CCCC(C)C)O2 (stereo partly specified) [Vitamin E Acetate]	0.96	0.69	0.85	0.65	0.72	0.51
COCCCN1CCC(NC(=O)c2cc(Cl)c(N)c3c2OCC3)CC1 [Prucalopride Succinate]	1.01	1.09	1.28	0.74	0.78	0.91
CCCC(=O)[O-].[Na+] [Sodium butyrate]	1.3	1.33	1.23	1.28	1.26	1.06
Clc1ccc(CCC(Cn2ccnc2)Sc2c(Cl)cccc2Cl)cc1 (stereo unspecified) [Butoconazole nitrate]	0.38	0.08	0.16	0	0.03	0.02
NC(=O)N1c2ccccc2CC(=O)c2ccccc21 [Oxcarbazepine]	0.81	1.14	1.19	1.05	0.95	1.28
C[C@H](CCC(=O)O)[C@H]1CC[C@H]2[C@@H]3C(=O)C[C@@H]4CC(=O)CC[C@]4(C)[C@H]3CC(=O)[C@]12C [Dehydrocholic acid]	0.85	0.83	0.92	0.91	0.79	0.55
OC[C@@H](O)[C@H](O)[C@@H](O)CO [Xylitol]	1.07	1.1	0.64	1.02	0.89	1.11
Cc1cccc(-c2nn3c(c2-c2ccnc4ccc(C(N)=O)cc24)CCC3)n1	0.96	0.87	0.81	1.03	0.96	1.07
COc1cc(OC)c(/C=C/S(=O)(=O)Cc2ccc(OC)c(NCC(=O)O)c2)c(OC)c1	1.15	1.07	1.29	1.49	0.95	1.11
CCCNC(C)C(=O)Nc1c(C)csc1C(=O)OC (stereo unspecified) [Articaine HCl]	1.18	1.21	0.91	0.98	1.03	0.84
COc1ccc(C2CNC(=O)C2)cc1OC1CCCC1 (stereo unspecified) [Rolipram]	1.04	1.06	0.49	0.71	0.86	0.83
FC(F)(F)c1ccc(/C=C/c2nc(COc3ccc(CCCCn4ccnn4)cc3)co2)cc1 [Mubritinib (TAK 165)]	0.63	0.6	0.74	0.81	0.7	0.65
OC[C@H]1O[C@@H](c2ccc(Cl)c(Cc3ccc(O[C@H]4CCOC4)cc3)c2)[C@H](O)[C@@H](O)[C@@H]1O	1.29	1.29	1.04	1.1	0.91	1.05
Nc1nc2[nH]cnc2c(=S)[nH]1 [Thioguanine]	0.98	0.79	0.74	0.7	0.62	0.64
CC1(C)O[C@@H]2C[C@H]3[C@@H]4CCC5=CC(=O)C=C[C@]5(C)[C@@]4(F)[C@@H](O)C[C@]3(C)[C@]2(C(=O)CO)O1 [Triamcinolone Acetonide]	0.92	0.82	0.78	0.63	0.85	0.63
CNC[C@H](O)c1ccc(O)c(O)c1 [Epinephrine bitartrate]	0.75	0.78	0.74	1.12	0.85	0.93

Structure (SMILES)	growth ([1]; 1 µM)	growth ([1]; 10 µM)	growth ([2]; 1 µM)	growth ([2]; 10 µM)	growth ([3]; 1 µM)	growth ([3]; 10 µM)
O=C(O)CCC(=O)Nc1ccc(S(=O)(=O)Nc2nccs2)cc1 [Succinylsulfathiazole]	0.79	0.9	0.82	0.66	0.6	0.6
CC(C)(C)C(=O)Oc1ccc(S(=O)(=O)Nc2ccccc2C(=O)NCC(=O)O)cc1 [Sivelestat sodium tetrahydrate]	0.81	0.76	0.86	0.66	1.03	0.83
CN(C/C=C/C#CC(C)(C)C)Cc1cccc2ccccc12 [Terbinafine]	0.37	0.84	0.48	1.13	0.33	0.74
CCNC(=O)CCC/C=C\C[C@@H]1[C@@H](/C=C/[C@@H](O)CCc2ccccc2)[C@H](O)C[C@@H]1O [Bimatoprost]	0.77	0.9	0.79	0.56	0.79	0.89
CC(=O)OCC(=O)NCCCOc1cccc(CN2CCCCC2)c1 [Roxatidine Acetate HCl]	0.92	0.8	0.97	0.68	0.63	0.58
C[N+](C)(C)CC(O)CC(=O)[O-] (racemic) [DL-Carnitine HCl]	0.78	1.02	1.27	0.98	1.28	1.28
Cc1onc(-c2ccccc2Cl)c1C(=O)N[C@@H]1C(=O)N2[C@@H]1SC(C)(C)[C@@H]2C(=O)O [Cloxacillin Sodium]	1.05	0.57	0.85	0.9	0.69	0.83
Cc1cc(/C=C/C#N)cc(C)c1Nc1ccnc(Nc2ccc(C#N)cc2)n1 [Rilpivirine]	1.15	0.92	1.03	0.98	1.24	1.07
CC(=O)NCCCS(=O)(=O)O [Acamprosate Calcium]	0.74	0.64	0.62	0.78	0.94	0.57
CC[C@H](C)C(=O)O[C@H]1C[C@H](O)C=C2C=C[C@H](C)[C@H](CC[C@@H](O)C[C@@H](O)CC(=O)O)[C@H]21 [Pravastatin sodium]	0.98	0.78	0.85	0.96	0.78	0.99
CCC1(c2c[nH]cn2)Cc2ccccc2C1 [Atipamezole]	1.12	1.17	1.03	0.69	0.88	0.97
NC(=O)c1cccc2cn(-c3ccc([C@@H]4CCCNC4)cc3)nc12 [Niraparib (MK-4827) tosylate]	0.93	0.76	1.31	0.63	0.7	0.66
CCN(CC)CCOC(=O)c1ccc(N)cc1Cl [Chloroprocaine HCl]	1.14	0.91	0.98	1.04	0.83	1.03
CN(C)[C@@H]1C(O)=C(C(N)=O)C(=O)[C@@]2(O)C(O)=C3C(=O)c4c(O)cccc4[C@@](C)(O)[C@H]3[C@H](O)[C@@H]12 [Oxytetracycline Dihydrate]	1.01	1.02	0.83	0.57	0.83	0.77
CC(C)OC(=O)CCC/C=C\C[C@@H]1[C@@H](/C=C/[C@@H](O)COc2cccc(C(F)(F)F)c2)[C@H](O)C[C@@H]1O [Travoprost]	0.84	1.11	0.88	0.98	0.79	1.38
CCCCc1nc(Cl)c(CO)n1Cc1ccc(-c2ccccc2-c2nnn[nH]2)cc1 [Losartan Potassium (DuP 753)]	0.98	0.84	1.13	1.26	1.31	1.08
CN[C@H](CC(C)C)C(=O)N[C@H]1C(=O)N[C@@H](CC(N)=O)C(=O)N[C@H]2C(=O)N[C@H]3C(=O)N[C@H](C(=O)N[C@H](C(=O)O)c4cc(O)cc(O)c4-c4cc3ccc4O)[C@H](O)c3ccc(c(Cl)c3)Oc3cc2cc(c3O[C@@H]2O[C@H](CO)[C@@H](O)[C@H](O)[C@H]2O[C@H]2C[C@](C)(N)[C@H](O)[C@H](C)O2)Oc2ccc(cc2Cl)[C@H]1O [Vancomycin HCl]	0.74	1.25	0.98	1.01	1.07	1.25
c1ccc2c(c1)CCCC2C1=NCCN1 (stereo unspecified) [Tetrahydrozoline HCl]	1.02	0.85	0.96	0.76	0.83	1.03
O=C(O)COCCN1CCN(C(c2ccccc2)c2ccc(Cl)cc2)CC1 (stereo unspecified) [Cetirizine DiHCl]	0.8	1.31	1.15	0.83	0.8	1
COc1ccc(O)cc1 [Mequinol]	1.09	0.78	0.94	0.97	0.89	0.88
CC(C)Cc1ccc(C(C)C(=O)O)cc1 (stereo unspecified) [Ibuprofen Lysine]	1.19	1.38	1.15	1.17	1.28	1.08
CC(=O)Oc1ccccc1C(=O)O.CC(=O)Oc1ccccc1C(=O)O.NC(N)=O [Carbasalate Calcium]	0.93	0.72	0.93	0.85	1.07	0.86
NS(=O)(=O)NCCNc1nonc1/C(=N/O)Nc1ccc(F)c(Br)c1	1.07	0.92	0.75	0.99	0.85	0.88

Limited to growth ([1]; 1 µM) (two entries from above):

| Structure (SMILES) | growth ([1]; 1 µM) |
| --- | --- |
| CCC1(c2c[nH]cn2)Cc2ccccc2C1 [Atipamezole] | 1.12 |
| NC(=O)c1cccc2cn(-c3ccc([C@@H]4CCCNC4)cc3)nc12 [Niraparib (MK-4827) tosylate] | 0.93 |

— the supplement of paper PMC10470496
